Measurements from publication PMC12408853.
These are yes or no findings as the source states them, for the method shown. In cells and extracts the contact can be indirect. Some binding calls cover weakened binding; strength is not graded here.

By UniProt entry, the sequences of proteins in these tests, tags left out.
UniProt Q04206: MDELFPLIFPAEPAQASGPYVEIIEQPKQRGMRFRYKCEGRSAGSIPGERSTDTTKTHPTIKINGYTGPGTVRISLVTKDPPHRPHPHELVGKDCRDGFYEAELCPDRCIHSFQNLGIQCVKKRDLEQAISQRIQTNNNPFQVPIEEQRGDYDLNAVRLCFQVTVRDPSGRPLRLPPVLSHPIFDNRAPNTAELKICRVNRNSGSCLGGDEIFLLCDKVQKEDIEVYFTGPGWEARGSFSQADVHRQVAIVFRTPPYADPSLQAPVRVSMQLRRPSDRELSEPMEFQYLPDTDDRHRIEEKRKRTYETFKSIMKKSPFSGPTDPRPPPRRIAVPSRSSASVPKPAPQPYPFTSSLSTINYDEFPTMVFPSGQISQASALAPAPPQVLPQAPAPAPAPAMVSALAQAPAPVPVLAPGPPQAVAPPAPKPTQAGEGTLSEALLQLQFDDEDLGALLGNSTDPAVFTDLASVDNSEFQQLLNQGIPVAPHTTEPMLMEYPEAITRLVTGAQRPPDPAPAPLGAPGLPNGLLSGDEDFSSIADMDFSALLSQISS

Molecular target: NF-κB p65 (human (endogenous in RPMI8226 and OPM2)) (UniProt Q04206)
Test: co-IP; endogenous proteins in RPMI8226 and OPM2 lysates (Western and IP lysis buffer, 1 mM PMSF); anti-p65 antibody 6 h at 4°C, Protein A/G magnetic beads overnight at 4°C; rabbit IgG control; washed three times with 0.05% PBST; Western blot

- binding: binds
B1: Estrogen-related receptor gamma (ERRγ) (protein, UniProt P62508 1-458)
chain: MDSVELCLPESFSLHYEEELLCRMSNKDRHIDSSCSSFIKTEPSSPASLTDSVNHHSPGGSSDASGSYSSTMNGHQNGLDSPPLYPSAPILGGSGPVRKLYDDCSSTIVEDPQTKCEYMLNSMPKRLCLVCGDIASGYHYGVASCEACKAFFKRTIQGNIEYSCPATNECEITKRRRKSCQACRFMKCLKVGMLKEGVRLDRVRGGRQKYKRRIDAENSPYLNPQLVQPAKKPYNKIVSHLLVAEPEKIYAMPDPTVPDSDIKALTTLCDLADRELVVIIGWAKHIPGFSTLSLADQMSLLQSAWMEILILGVVYRSLSFEDELVYADDYIMDEDQSKLAGLLDLNNAILQLVKKYKSMKLEKEEFVTLKAIALANSDSMHIEDVEAVQKLQDVLHEALQDYEAGQHMEDPRRAGKMLMTLPLLRQTSTKAVQHFYNIKLEGKVPMHKLFLEMLEAKV
